These are yes or no findings as the source states them, for the method shown. Binding seen in cells or lysates may run through a third protein. Some results given as binding are weak or reduced against the parent protein; the word gives no strength.
Molecular target: N-Myc down regulated gene 4 (NDRG4) (human (endogenous in IOMM-Lee and CH-157 MN)) (UniProt Q9ULP0)
Test: co-IP; 400 ug lysate of untransduced, control shRNA and shNDRG4 transduced IOMM-Lee and CH-157 MN cells; NDRG4 antibody (2 ug) overnight at 4°C, protein G magnetic beads; immunoblotted for p53 and NDRG4

The chains behind the UniProt entries cited, without tags or fusion partners.
UniProt Q9ULP0: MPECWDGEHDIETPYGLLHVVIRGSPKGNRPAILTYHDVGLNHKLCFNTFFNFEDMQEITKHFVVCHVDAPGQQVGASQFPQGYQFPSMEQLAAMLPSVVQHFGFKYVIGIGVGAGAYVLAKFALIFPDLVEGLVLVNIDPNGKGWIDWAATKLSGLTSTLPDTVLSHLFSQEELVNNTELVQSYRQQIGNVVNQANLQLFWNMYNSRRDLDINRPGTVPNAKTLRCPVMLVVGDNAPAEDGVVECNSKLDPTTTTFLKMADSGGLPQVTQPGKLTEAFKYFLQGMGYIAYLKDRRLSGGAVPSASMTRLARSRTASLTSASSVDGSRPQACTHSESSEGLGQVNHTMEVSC

p53 (from UniProt P04637 1-393)
binding: binds
